Construct, isoform or probe ends are uncertain for at least one entry. Weaker means in comparison with the reference protein, sequence or condition of that experiment. Protein sequences can lack the tags named with them.
Molecular target: T1, Progesterone receptor isoform B (PR-B) (Homo sapiens) (UniProt P06401)
T1 sequence (looked up, limits assumed): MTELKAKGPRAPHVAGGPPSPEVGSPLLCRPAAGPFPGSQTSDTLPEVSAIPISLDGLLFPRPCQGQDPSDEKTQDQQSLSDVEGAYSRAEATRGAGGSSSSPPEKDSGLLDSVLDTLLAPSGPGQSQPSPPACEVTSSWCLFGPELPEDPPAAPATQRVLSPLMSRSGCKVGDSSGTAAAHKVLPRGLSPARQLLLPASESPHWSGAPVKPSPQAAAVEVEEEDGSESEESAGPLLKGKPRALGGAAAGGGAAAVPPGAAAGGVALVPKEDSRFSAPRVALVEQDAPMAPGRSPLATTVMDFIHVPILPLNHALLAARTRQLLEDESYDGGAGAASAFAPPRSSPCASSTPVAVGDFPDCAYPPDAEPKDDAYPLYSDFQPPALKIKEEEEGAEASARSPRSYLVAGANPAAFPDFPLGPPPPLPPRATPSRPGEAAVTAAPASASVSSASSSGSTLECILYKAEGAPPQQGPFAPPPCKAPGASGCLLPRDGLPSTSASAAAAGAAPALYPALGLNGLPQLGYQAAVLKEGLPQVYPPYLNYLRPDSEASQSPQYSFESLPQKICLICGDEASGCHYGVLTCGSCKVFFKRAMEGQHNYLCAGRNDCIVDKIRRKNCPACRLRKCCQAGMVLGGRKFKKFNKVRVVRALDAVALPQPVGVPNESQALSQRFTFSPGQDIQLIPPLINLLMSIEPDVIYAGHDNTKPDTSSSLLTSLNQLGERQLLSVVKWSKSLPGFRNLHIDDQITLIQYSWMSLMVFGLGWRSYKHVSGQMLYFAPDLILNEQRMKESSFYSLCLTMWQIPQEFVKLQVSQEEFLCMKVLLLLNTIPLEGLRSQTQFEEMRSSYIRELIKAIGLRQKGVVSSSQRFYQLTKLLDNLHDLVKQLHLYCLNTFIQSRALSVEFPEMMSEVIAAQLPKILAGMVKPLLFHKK
Assay: EMSA
Details: EMSA: 20 min at room temperature, 5% acrylamide-bisacrylamide gel, salt and pH not stated, recombinant protein

[1] = less than no-CpG PRE, more than methylated

Sequence | binding result [1] | other results
GTTGAGTCAGAACGGTTTGTTCTCTAGGCAC (double strand) [PRE one CpG, unmethylated] | binds more weakly | 
GTTGAGTCAGAACGGTTCGTTCTCTAGGCAC (double strand) [PRE two CpGs, unmethylated] | binds more weakly | 
GTTGAGTCAGAACGGTTTGTTCTCTAGGCAC (double strand) [PRE one CpG, methylated] |  | binding result (less than unmethylated one-CpG PRE, 5-methylcytosine (printed 'methylated cytosine') at C18 of reverse strand, only one forward strand listed, no methylation marked on it (hemimethylated)): binds more weakly
GTTGAGTCAGAACGGTTCGTTCTCTAGGCAC (double strand) [PRE two CpGs, methylated] |  | binding result (less than unmethylated two-CpG PRE, 5-methylcytosine (printed 'methylated cytosine') at C13 and C18 of reverse strand, only one forward strand listed, no methylation marked on it (hemimethylated)): binds more weakly

Reference: PMC6210734, “Unliganded Progesterone Receptor Governs Estrogen Receptor Gene Expression by Regulating DNA Methylation in Breast Cancer Cells”
